The test system of this assay is MDA-MB-231 cells. Briefly: MTT anti-proliferative assay. It is filed as cell-based. Particulars: not affected by light irradiation. On the procedure:
Subsequently, the anti-proliferative properties of TPECB-Pt-D5-cRGD towards MDA-MB-231 cells, U87-MG cells, MCF-7 cells and 293T cells were evaluated by MTT assays. The MDA-MB-231 cells are cisplatin resistant while U87-MG cells are cisplatin-sensitive. […] It should be noted that the cytotoxicity of cisplatin to both cells was not affected by the light irradiation.
For orientation: Formazan colour is commonly taken as a measure of viable cells.

The values below come from patent publication US20170168041A1, “Polymers And Oligomers With Aggregation-Induced Emission Characteristics For Imaging And Image-Guided Therapy” (National University of Singapore, priority 2014, published 2017).

In general, IC50 refers to the concentration that gives 50% inhibition. A high value points to a need for much substance.

The compound `N.N.[Cl][Pt][Cl]` [cisplatin] showed an IC50 of 33.4 µM. That is a double-digit micromolar value.
